Assay results taken from article PMC8494293, “Relief of ParB autoinhibition by parS DNA catalysis and recycling of ParB by CTP hydrolysis promote bacterial centromere assembly” (Science Advances, 2021).
No constants are given. Whether binding was seen depends on the method and setting. In cells and extracts the contact can be indirect. Some entries that bind do so weakly or less than the wild type.

What was measured:
[1] = target: ParB(T22C)-HT (B. subtilis) (UniProt P26497); test: cross-linking; in vivo BMOE (0.5 mM) cysteine cross-linking of ParB-HT in B. subtilis cells on ice, HaloTag-TMR in-gel fluorescence after SDS-PAGE; also in a strain lacking eight parS sites
[2] = target: ParB(T22C, E78Q)-HT (B. subtilis) (UniProt P26497); test: as above
[3] = target: ParB(T22C, E111Q)-HT (B. subtilis) (UniProt P26497); test: as above
[4] = target: ParB(R105C, H133C, E78Q)-HT (B. subtilis) (UniProt P26497); test: as above
[5] = target: ParB(R105C, H133C, E111Q)-HT (B. subtilis) (UniProt P26497); test: as above
[6] = target: ParB(R105C, H133C, S278C)-HT in combination with E78Q (B. subtilis) (UniProt P26497); test: cross-linking; chromosome entrapment assay: in vivo BMOE cross-linking to covalently closed circular ParB-HT species, input and eluate from agarose beads under denaturing conditions, in-gel fluorescence
[7] = target: ParB(R105C, H133C, S278C)-HT in combination with E111Q (B. subtilis) (UniProt P26497); test: as above
[8] = target: ParB(A102C, H133C)-HT (B. subtilis) (UniProt P26497); test: cross-linking; in vivo BMOE (0.5 mM) cysteine cross-linking of ParB-HT in B. subtilis cells on ice, HaloTag-TMR in-gel fluorescence after SDS-PAGE; also in a strain lacking eight parS sites
[9] = target: ParB(R105C, H133C)-HT (B. subtilis) (UniProt P26497); test: as above
[10] = target: ParB(R105C, L134C)-HT (B. subtilis) (UniProt P26497); test: as above
[11] = target: ParB(A102C, L134C)-HT (B. subtilis) (UniProt P26497); test: as above

B1: ParB(T22C) (natural protein, B. subtilis, UniProt P26497 1-282, looked up)
chain: MAKGLGKGINALFNQVDLSEECVEEIKIADLRPNPYQPRKHFDDEALAELKESVLQHGILQPLIVRKSLKGYDIVAGERRFRAAKLAGLDTVPAIVRELSEALMREIALLENLQREDLSPLEEAQAYDSLLKHLDLTQEQLAKRLGKSRPHIANHLRLLTLPENIQQLIAEGTLSMGHGRTLLGLKNKNKLEPLVQKVIAEQLNVRQLEQLIQQLNQNVPRETKKKEPVKDAVLKERESYLQNYFGTTVNIKRQKKKGKIEIEFFSNEDLDRILELLSERES
notes: ParB, B. subtilis, untagged recombinant protein with a cysteine at the N-gate; source: E. coli BL21-Gold (DE3), purified (ammonium sulfate, heparin, HiTrap SP, Superdex 200)
[1]
  binding: binds weakly

B2: ParB(T22C, E78Q)-HT (protein, UniProt P26497 1-282)
chain: MAKGLGKGINALFNQVDLSEECVEEIKIADLRPNPYQPRKHFDDEALAELKESVLQHGILQPLIVRKSLKGYDIVAGQRRFRAAKLAGLDTVPAIVRELSEALMREIALLENLQREDLSPLEEAQAYDSLLKHLDLTQEQLAKRLGKSRPHIANHLRLLTLPENIQQLIAEGTLSMGHGRTLLGLKNKNKLEPLVQKVIAEQLNVRQLEQLIQQLNQNVPRETKKKEPVKDAVLKERESYLQNYFGTTVNIKRQKKKGKIEIEFFSNEDLDRILELLSERES
[2]
  binding: binds

B3: ParB(T22C, E111Q)-HT (protein, UniProt P26497 1-282)
chain: MAKGLGKGINALFNQVDLSEECVEEIKIADLRPNPYQPRKHFDDEALAELKESVLQHGILQPLIVRKSLKGYDIVAGERRFRAAKLAGLDTVPAIVRELSEALMREIALLQNLQREDLSPLEEAQAYDSLLKHLDLTQEQLAKRLGKSRPHIANHLRLLTLPENIQQLIAEGTLSMGHGRTLLGLKNKNKLEPLVQKVIAEQLNVRQLEQLIQQLNQNVPRETKKKEPVKDAVLKERESYLQNYFGTTVNIKRQKKKGKIEIEFFSNEDLDRILELLSERES
[3]
  binding: binds

B4: ParB(R105C, H133C, E78Q)-HT (protein, UniProt P26497 1-282)
chain: MAKGLGKGINALFNQVDLSEETVEEIKIADLRPNPYQPRKHFDDEALAELKESVLQHGILQPLIVRKSLKGYDIVAGQRRFRAAKLAGLDTVPAIVRELSEALMCEIALLENLQREDLSPLEEAQAYDSLLKCLDLTQEQLAKRLGKSRPHIANHLRLLTLPENIQQLIAEGTLSMGHGRTLLGLKNKNKLEPLVQKVIAEQLNVRQLEQLIQQLNQNVPRETKKKEPVKDAVLKERESYLQNYFGTTVNIKRQKKKGKIEIEFFSNEDLDRILELLSERES
[4]
  binding: binds

B5: ParB(R105C, H133C, E111Q)-HT (protein, UniProt P26497 1-282)
chain: MAKGLGKGINALFNQVDLSEETVEEIKIADLRPNPYQPRKHFDDEALAELKESVLQHGILQPLIVRKSLKGYDIVAGERRFRAAKLAGLDTVPAIVRELSEALMCEIALLQNLQREDLSPLEEAQAYDSLLKCLDLTQEQLAKRLGKSRPHIANHLRLLTLPENIQQLIAEGTLSMGHGRTLLGLKNKNKLEPLVQKVIAEQLNVRQLEQLIQQLNQNVPRETKKKEPVKDAVLKERESYLQNYFGTTVNIKRQKKKGKIEIEFFSNEDLDRILELLSERES
[5]
  binding: binds

B6: ParB(R105C, H133C, S278C)-HT in combination with E78Q (protein, UniProt P26497 1-282)
chain: MAKGLGKGINALFNQVDLSEETVEEIKIADLRPNPYQPRKHFDDEALAELKESVLQHGILQPLIVRKSLKGYDIVAGQRRFRAAKLAGLDTVPAIVRELSEALMCEIALLENLQREDLSPLEEAQAYDSLLKCLDLTQEQLAKRLGKSRPHIANHLRLLTLPENIQQLIAEGTLSMGHGRTLLGLKNKNKLEPLVQKVIAEQLNVRQLEQLIQQLNQNVPRETKKKEPVKDAVLKERESYLQNYFGTTVNIKRQKKKGKIEIEFFSNEDLDRILELLCERES
[6]
  binding: binds

B7: ParB(R105C, H133C, S278C)-HT in combination with E111Q (protein, UniProt P26497 1-282)
chain: MAKGLGKGINALFNQVDLSEETVEEIKIADLRPNPYQPRKHFDDEALAELKESVLQHGILQPLIVRKSLKGYDIVAGERRFRAAKLAGLDTVPAIVRELSEALMCEIALLQNLQREDLSPLEEAQAYDSLLKCLDLTQEQLAKRLGKSRPHIANHLRLLTLPENIQQLIAEGTLSMGHGRTLLGLKNKNKLEPLVQKVIAEQLNVRQLEQLIQQLNQNVPRETKKKEPVKDAVLKERESYLQNYFGTTVNIKRQKKKGKIEIEFFSNEDLDRILELLCERES
[7]
  binding: binds

B8: ParB(A102C, H133C) (natural protein, B. subtilis, UniProt P26497 1-282, looked up)
chain: MAKGLGKGINALFNQVDLSEETVEEIKIADLRPNPYQPRKHFDDEALAELKESVLQHGILQPLIVRKSLKGYDIVAGERRFRAAKLAGLDTVPAIVRELSECLMREIALLENLQREDLSPLEEAQAYDSLLKCLDLTQEQLAKRLGKSRPHIANHLRLLTLPENIQQLIAEGTLSMGHGRTLLGLKNKNKLEPLVQKVIAEQLNVRQLEQLIQQLNQNVPRETKKKEPVKDAVLKERESYLQNYFGTTVNIKRQKKKGKIEIEFFSNEDLDRILELLSERES
notes: ParB, B. subtilis, untagged recombinant protein with cysteines at the N-M interface; source: E. coli BL21-Gold (DE3), purified (ammonium sulfate, heparin, HiTrap SP, Superdex 200)
[8]
  binding: binds

B9: ParB(R105C, H133C) (natural protein, B. subtilis, UniProt P26497 1-282, looked up)
chain: MAKGLGKGINALFNQVDLSEETVEEIKIADLRPNPYQPRKHFDDEALAELKESVLQHGILQPLIVRKSLKGYDIVAGERRFRAAKLAGLDTVPAIVRELSEALMCEIALLENLQREDLSPLEEAQAYDSLLKCLDLTQEQLAKRLGKSRPHIANHLRLLTLPENIQQLIAEGTLSMGHGRTLLGLKNKNKLEPLVQKVIAEQLNVRQLEQLIQQLNQNVPRETKKKEPVKDAVLKERESYLQNYFGTTVNIKRQKKKGKIEIEFFSNEDLDRILELLSERES
notes: as for B8
[9]
  binding: binds weakly

B10: ParB(R105C, L134C)-HT (protein, UniProt P26497 1-282)
chain: MAKGLGKGINALFNQVDLSEETVEEIKIADLRPNPYQPRKHFDDEALAELKESVLQHGILQPLIVRKSLKGYDIVAGERRFRAAKLAGLDTVPAIVRELSEALMCEIALLENLQREDLSPLEEAQAYDSLLKHCDLTQEQLAKRLGKSRPHIANHLRLLTLPENIQQLIAEGTLSMGHGRTLLGLKNKNKLEPLVQKVIAEQLNVRQLEQLIQQLNQNVPRETKKKEPVKDAVLKERESYLQNYFGTTVNIKRQKKKGKIEIEFFSNEDLDRILELLSERES
[10]
  binding: binds weakly

B11: ParB(A102C, L134C)-HT (protein, UniProt P26497 1-282)
chain: MAKGLGKGINALFNQVDLSEETVEEIKIADLRPNPYQPRKHFDDEALAELKESVLQHGILQPLIVRKSLKGYDIVAGERRFRAAKLAGLDTVPAIVRELSECLMREIALLENLQREDLSPLEEAQAYDSLLKHCDLTQEQLAKRLGKSRPHIANHLRLLTLPENIQQLIAEGTLSMGHGRTLLGLKNKNKLEPLVQKVIAEQLNVRQLEQLIQQLNQNVPRETKKKEPVKDAVLKERESYLQNYFGTTVNIKRQKKKGKIEIEFFSNEDLDRILELLSERES
[11]
  binding: binds
